PubChem BioAssay AID652272 – Drosophila RNAi Screening Center, 2013
The deposit covers about 21,000 reagents; below is a random part of those with a known target gene and a result. In the full data, 503 (2.4%) got an active call. 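Raw plate light values, not normalised; calls rest on replicate z-scores that were not deposited; hits include reporter decreases as well as increases.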 Names joined by + are all predicted targets of the reagent. Reagent sequences are not shown. Not given: the amount of reagent, the time to read-out.

- Test: 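Genes whose knock-down decreases or increases Hedgehog reporter output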 (primary screen)
- System: Drosophila clone 8 (Cl8) cells
- Knock-down reagent: long dsRNA against Drosophila genes
- Detection: 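Firefly light from a Hedgehog-responsive ptc promoter reporter and Renilla reference light, both read on a plate reader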
- Reading the numbers: firefly Hh reporter signal: higher = more ptc reporter light; Renilla reference signal: higher = more Renilla control light
- Rule for the call: 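Called a hit if the two-replicate mean z-score lies below -2 or above +3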
- Calls: active = hit: reporter lowered or raised; inactive = not a hit

After knock-down of Nbr (Nibbler) [DRSC03166], the record shows firefly Hh reporter signal, replicate 1 = 63207; firefly Hh reporter signal, replicate 2 = 59765; Renilla reference signal, replicate 1 = 2641; Renilla reference signal, replicate 2 = 2524; inactive. CG14551 [DRSC14894] showed firefly Hh reporter signal, replicate 1 = 5.36e5; firefly Hh reporter signal, replicate 2 = 1.22e5; Renilla reference signal, replicate 1 = 27424; Renilla reference signal, replicate 2 = 4012; inactive. CG12204 [DRSC19442] showed firefly Hh reporter signal, replicate 1 = 1.07e5; firefly Hh reporter signal, replicate 2 = 1.05e5; Renilla reference signal, replicate 1 = 1736; Renilla reference signal, replicate 2 = 2457; inactive. Knock-down of Fcp1 (TFIIF-interacting CTD phosphatase) [DRSC04121] resulted in: firefly Hh reporter signal, replicate 1 = 99152; firefly Hh reporter signal, replicate 2 = 53456; Renilla reference signal, replicate 1 = 4436; Renilla reference signal, replicate 2 = 2448; inactive. Silencing of 14-3-3zeta [DRSC05028] gave: firefly Hh reporter signal, replicate 1 = 98257; firefly Hh reporter signal, replicate 2 = 72312; Renilla reference signal, replicate 1 = 3896; Renilla reference signal, replicate 2 = 2565; inactive. Knock-down of odd (odd skipped) [DRSC00832] came out at: firefly Hh reporter signal, replicate 1 = 58187; firefly Hh reporter signal, replicate 2 = 8946; Renilla reference signal, replicate 1 = 1744; Renilla reference signal, replicate 2 = 1506; inactive.

Depletion of CG3065 [DRSC04333] gave: firefly Hh reporter signal, replicate 1 = 99382; firefly Hh reporter signal, replicate 2 = 59857; Renilla reference signal, replicate 1 = 3600; Renilla reference signal, replicate 2 = 2347; inactive. Against CG2202 [DRSC19841], the entry reads firefly Hh reporter signal, replicate 1 = 1.41e5; firefly Hh reporter signal, replicate 2 = 4.03e5; firefly Hh reporter signal, replicate 3 = 1.05e5; Renilla reference signal, replicate 1 = 2704; Renilla reference signal, replicate 2 = 21001; inactive. Against CG13390 [DRSC02261], the entry reads firefly Hh reporter signal, replicate 1 = 1.08e5; firefly Hh reporter signal, replicate 2 = 58812; Renilla reference signal, replicate 1 = 2960; Renilla reference signal, replicate 2 = 4888; inactive. CG4306 [DRSC10409] showed firefly Hh reporter signal, replicate 1 = 87048; Renilla reference signal, replicate 1 = 5736; Renilla reference signal, replicate 2 = 2544; inactive. For Pits (Protein interacting with Ttk69 and Sin3A) [DRSC19385], the entry reads firefly Hh reporter signal, replicate 1 = 1.45e5; firefly Hh reporter signal, replicate 2 = 2.75e5; Renilla reference signal, replicate 1 = 5255; Renilla reference signal, replicate 2 = 11682; inactive. With knock-down of Pits (Protein interacting with Ttk69 and Sin3A) [DRSC19812], the record shows firefly Hh reporter signal, replicate 1 = 1.71e5; firefly Hh reporter signal, replicate 2 = 7.84e5; firefly Hh reporter signal, replicate 3 = 3.95e5; Renilla reference signal, replicate 1 = 5830; Renilla reference signal, replicate 2 = 4498; inactive.

For a5 (antennal protein 5) [DRSC00798], the entry reads firefly Hh reporter signal, replicate 1 = 82949; firefly Hh reporter signal, replicate 2 = 76010; Renilla reference signal, replicate 1 = 2167; Renilla reference signal, replicate 2 = 1944; inactive. Silencing of Dip-C (Dipeptidase C) [DRSC15855] gave: firefly Hh reporter signal, replicate 1 = 1.17e5; firefly Hh reporter signal, replicate 2 = 79383; Renilla reference signal, replicate 1 = 4771; Renilla reference signal, replicate 2 = 3216; inactive. After knock-down of CycK (Cyclin K) [DRSC03714], the record shows firefly Hh reporter signal, replicate 1 = 1.17e5; firefly Hh reporter signal, replicate 2 = 92784; Renilla reference signal, replicate 1 = 4336; Renilla reference signal, replicate 2 = 3731; inactive. With knock-down of CG13919 [DRSC08388] the results were firefly Hh reporter signal, replicate 1 = 65908; firefly Hh reporter signal, replicate 2 = 37876; Renilla reference signal, replicate 1 = 2565; Renilla reference signal, replicate 2 = 3104; inactive. Silencing of CG15597 [DRSC12283] came out at: firefly Hh reporter signal, replicate 1 = 1.48e5; firefly Hh reporter signal, replicate 2 = 1.67e5; Renilla reference signal, replicate 1 = 5307; Renilla reference signal, replicate 2 = 4884; inactive. For CG4830 [DRSC15657] the deposit lists firefly Hh reporter signal, replicate 1 = 79256; firefly Hh reporter signal, replicate 2 = 89603; Renilla reference signal, replicate 1 = 2369; Renilla reference signal, replicate 2 = 2214; inactive.

CG14929 + CG14930 [DRSC02412] scored firefly Hh reporter signal, replicate 1 = 92749; firefly Hh reporter signal, replicate 2 = 85514; Renilla reference signal, replicate 1 = 2835; Renilla reference signal, replicate 2 = 7242; inactive. For CG15136 [DRSC02436] the deposit lists firefly Hh reporter signal, replicate 1 = 74636; firefly Hh reporter signal, replicate 2 = 36133; Renilla reference signal, replicate 1 = 2058; Renilla reference signal, replicate 2 = 3986; inactive. CG34165 [DRSC01970] scored firefly Hh reporter signal, replicate 1 = 57312; firefly Hh reporter signal, replicate 2 = 1.74e5; firefly Hh reporter signal, replicate 3 = 16055; Renilla reference signal, replicate 1 = 1963; Renilla reference signal, replicate 2 = 12528; active.
